# Test system: TGR-1 cells
smiles,measurement,setting,value
"CN[C@H]1CCc2cc(OC)c(OC)c(OC)c2-c2ccc(OC)c(=O)cc21 [Colcemid, colcemid]",colcemid-treated cells showing multinuclei (>10 micronuclei),24 hrs 0.1 μg/ml colcemid,17%
same,colcemid-treated cells with no micronuclei,24 hrs 0.1 μg/ml colcemid,65%
same,"content of induced micronuclei (Rad51 protein, fragmented DNA)","TGR-1 cultures treated with colcemid, FIG. 5C",contain Rad51 protein
same,Rad51 staining in nuclei versus micronuclei,"TGR-1 treated with colcemid one day, recovered two days, FIG. 7E-F",absence of Rad51 staining in the nuclei

# — patent publication US6391564B1, “Methods and compositions utilizing Rad51” (priority 1997, dated 2002)
